PubChem BioAssay AID1904 | GNF | 2009

- Test: 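Knockdowns that alter circadian period or oscillation amplitude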 (follow-up of hits)
- Cell system: human U2OS osteosarcoma cells stably expressing a destabilised luciferase driven by the Bmal1 promoter
- Reagent: siRNA pair against human genes, 12.5 nM (two siRNAs, 0.5 pmol each, per well)
- Duration: about 3 days after transfection, then luminescence recorded for about 4 days
- Measurement: 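Period and amplitude fitted from detrended luminescence traces taken every 2 hours; duplicate wells averaged, compared with the screen mean and grouped into phenotype classes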
- Hit rule: 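Scored active if separate single siRNAs repeated the clock phenotype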
- Calls: active = confirmed by single siRNAs; inactive = not confirmed
The reagents shown are a selection, not the whole library. 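Lists only primary-screen hits; phenotype classes come from fitted traces, and the underlying luminescence values are not given.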 Reagents against one gene are numbered here.

no.	target	reagent	clock phenotype class	confirmed with single siRNAs	Call
1	IGSF4C	1	longer clock period; seen with two independent siRNA pairs for the gene	phenotype reproduced by individual siRNAs	active
2	IGSF4C	2	longer clock period; seen with two independent siRNA pairs for the gene	phenotype reproduced by individual siRNAs	active
3	SUV420H1	1	higher rhythm amplitude; seen with one siRNA pair in duplicate wells	phenotype reproduced by individual siRNAs	active
4	SUV420H1	2	higher rhythm amplitude; seen with one siRNA pair in duplicate wells	phenotype reproduced by individual siRNAs	active
5	GRM5	1	longer clock period; seen with two independent siRNA pairs for the gene	phenotype reproduced by individual siRNAs	active
6	GRM5	2	longer clock period; seen with two independent siRNA pairs for the gene	phenotype reproduced by individual siRNAs	active
7	SCARA3	1	shorter clock period; seen with two independent siRNA pairs for the gene	phenotype reproduced by individual siRNAs	active
8	SCARA3	2	shorter clock period; seen with two independent siRNA pairs for the gene	phenotype reproduced by individual siRNAs	active
9	FGF10	1	longer clock period; seen with two independent siRNA pairs for the gene	phenotype reproduced by individual siRNAs	active
10	FGF10	2	longer clock period; seen with two independent siRNA pairs for the gene	phenotype reproduced by individual siRNAs	active
11	RING1	1	longer clock period; seen with two independent siRNA pairs for the gene	phenotype reproduced by individual siRNAs	active
12	RING1	2	longer clock period; seen with two independent siRNA pairs for the gene	phenotype reproduced by individual siRNAs	active
13	FRAP1	1	longer clock period; seen with two independent siRNA pairs for the gene	phenotype reproduced by individual siRNAs	active
14	FRAP1	2	longer clock period; seen with two independent siRNA pairs for the gene	phenotype reproduced by individual siRNAs	active
15	CDK9	1	longer clock period; seen with two independent siRNA pairs for the gene	phenotype reproduced by individual siRNAs	active
16	CDK9	2	longer clock period; seen with two independent siRNA pairs for the gene	phenotype reproduced by individual siRNAs	active
17	CLPX	1	shorter clock period; seen with two independent siRNA pairs for the gene	phenotype not reproduced by individual siRNAs	inconclusive
18	CLPX	2	shorter clock period; seen with two independent siRNA pairs for the gene	phenotype not reproduced by individual siRNAs	inconclusive
19	MSRB2	1	longer clock period; seen with two independent siRNA pairs for the gene	not retested with individual siRNAs	
20	MSRB2	2	longer clock period; seen with two independent siRNA pairs for the gene	not retested with individual siRNAs	
21	FLJ10786	1	longer clock period; seen with two independent siRNA pairs for the gene	phenotype reproduced by individual siRNAs	active
22	FLJ10786	2	longer clock period; seen with two independent siRNA pairs for the gene	phenotype reproduced by individual siRNAs	active
23	C9orf86	1	longer clock period; seen with two independent siRNA pairs for the gene	not retested with individual siRNAs	
24	C9orf86	2	longer clock period; seen with two independent siRNA pairs for the gene	not retested with individual siRNAs	
25	DHX29	1	shorter clock period; seen with two independent siRNA pairs for the gene	not retested with individual siRNAs	
26	DHX29	2	shorter clock period; seen with two independent siRNA pairs for the gene	not retested with individual siRNAs	
27	VPS4A	1	longer clock period; seen with two independent siRNA pairs for the gene	phenotype not reproduced by individual siRNAs	inconclusive
28	VPS4A	2	longer clock period; seen with two independent siRNA pairs for the gene	phenotype not reproduced by individual siRNAs	inconclusive
29	KCNJ1	1	longer clock period; seen with two independent siRNA pairs for the gene	phenotype reproduced by individual siRNAs	active
30	KCNJ1	2	longer clock period; seen with two independent siRNA pairs for the gene	phenotype reproduced by individual siRNAs	active
31	CGI-63	1	shorter clock period; seen with one siRNA pair in duplicate wells	not retested with individual siRNAs	
32	CGI-63	2	shorter clock period; seen with one siRNA pair in duplicate wells	not retested with individual siRNAs	
33	LHCGR	1	longer clock period; seen with two independent siRNA pairs for the gene	phenotype reproduced by individual siRNAs	active
34	LHCGR	2	longer clock period; seen with two independent siRNA pairs for the gene	phenotype reproduced by individual siRNAs	active
35	LILRB1	1	shorter clock period; seen with two independent siRNA pairs for the gene	phenotype reproduced by individual siRNAs	active
36	LILRB1	2	shorter clock period; seen with two independent siRNA pairs for the gene	phenotype reproduced by individual siRNAs	active
37	LIPG	1	longer clock period; seen with two independent siRNA pairs for the gene	phenotype reproduced by individual siRNAs	active
38	LIPG	2	longer clock period; seen with two independent siRNA pairs for the gene	phenotype reproduced by individual siRNAs	active
39	PRO0149	1	longer clock period; seen with two independent siRNA pairs for the gene	phenotype reproduced by individual siRNAs	active
40	PRO0149	2	longer clock period; seen with two independent siRNA pairs for the gene	phenotype reproduced by individual siRNAs	active
41	BTNL2	1	higher rhythm amplitude; seen with one siRNA pair in duplicate wells	phenotype not reproduced by individual siRNAs	inconclusive
42	BTNL2	2	higher rhythm amplitude; seen with one siRNA pair in duplicate wells	phenotype not reproduced by individual siRNAs	inconclusive
43	NMNAT1	1	higher rhythm amplitude; seen with one siRNA pair in duplicate wells	phenotype reproduced by individual siRNAs	active
44	NMNAT1	2	higher rhythm amplitude; seen with one siRNA pair in duplicate wells	phenotype reproduced by individual siRNAs	active
45	HGFAC	1	shorter clock period; seen with one siRNA pair in duplicate wells	phenotype reproduced by individual siRNAs	active
46	HGFAC	2	shorter clock period; seen with one siRNA pair in duplicate wells	phenotype reproduced by individual siRNAs	active
47	FLJ39369	1	longer clock period; seen with two independent siRNA pairs for the gene	phenotype reproduced by individual siRNAs	active
48	FLJ39369	2	longer clock period; seen with two independent siRNA pairs for the gene	phenotype reproduced by individual siRNAs	active
49	PLEKHJ1	1	shorter clock period; seen with two independent siRNA pairs for the gene	phenotype reproduced by individual siRNAs	active
50	PLEKHJ1	2	shorter clock period; seen with two independent siRNA pairs for the gene	phenotype reproduced by individual siRNAs	active
51	C6orf89	1	shorter clock period; seen with two independent siRNA pairs for the gene	phenotype reproduced by individual siRNAs	active
52	C6orf89	2	shorter clock period; seen with two independent siRNA pairs for the gene	phenotype reproduced by individual siRNAs	active
53	CKAP1	1	shorter clock period; seen with one siRNA pair in duplicate wells	phenotype reproduced by individual siRNAs	active
54	CKAP1	2	shorter clock period; seen with one siRNA pair in duplicate wells	phenotype reproduced by individual siRNAs	active
55	PPM1B	1	shorter clock period; seen with two independent siRNA pairs for the gene	phenotype reproduced by individual siRNAs	active
56	PPM1B	2	shorter clock period; seen with two independent siRNA pairs for the gene	phenotype reproduced by individual siRNAs	active
57	CLCN6	1	higher rhythm amplitude; seen with one siRNA pair in duplicate wells	not retested with individual siRNAs	
58	CLCN6	2	higher rhythm amplitude; seen with one siRNA pair in duplicate wells	not retested with individual siRNAs	

Only “confirmed with single siRNAs” (7 entries from above):
PRO0149 #1	phenotype reproduced by individual siRNAs
PRO0149 #2	phenotype reproduced by individual siRNAs
BTNL2 #1	phenotype not reproduced by individual siRNAs
BTNL2 #2	phenotype not reproduced by individual siRNAs
NMNAT1 #1	phenotype reproduced by individual siRNAs
NMNAT1 #2	phenotype reproduced by individual siRNAs
HGFAC #1	phenotype reproduced by individual siRNAs
